Results taken from PubChem BioAssay AID504834 (National Center for Advancing Translational Sciences (NCATS), 2011).
In all, about 320,000 compounds went through this assay and about 22,000 (6.9%) were called active. The inconclusive results got no clear call from the source; some entries with a clear call stand among them for comparison. Calls come from the whole dose curve; as a rule, active = well fitted inhibition curve with a large enough effect; inconclusive = small, poorly fitted or top-dose-only effect, or another doubt; inactive = no such curve, though single readings can be large or run the other way. A potency beside an inconclusive call is a rough fit, not a confirmed value.

experiment: Primary qHTS for delayed death inhibitors of the malarial parasite plastid, 96 hour incubation; settings: P. falciparum luciferase reporter growth; series mostly up to 28.7 µM; activity change, negative = inhibition: at the top concentration
Summary of the method: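 Luminescence readout: decreased luciferase signal marks inhibited growth of reporter-expressing P. falciparum in infected red cells (2% hematocrit, 0.05% parasitemia final), exposed to compound two generations (96 h, 37 C, 5% CO2).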
% is set by controls: 0 for no effect and ±100 for the full control effect; potency is the fitted concentration of half-maximal effect.

SMILES | Potency | activity change, negative = inhibition
O=C(Cn1cnc2sc3c(c2c1=O)CCCC3)NCC(=O)Nc1c(F)cccc1F | inconclusive: 16.5 µM [inhibitor, single point] | –
CCOc1ccc(NC(=O)C(C)NC(=O)c2ccccc2Cl)cc1S(=O)(=O)N1CCCC1 (centres undefined) | inconclusive: 13.1 µM [inhibitor, single point] | –
Cc1ccc(Nc2c(-c3ccccc3O)nc3cnccn23)cc1 | – | inactive: 0%
CCCCn1c(N)c(N(CCC(C)C)C(=O)c2ccc3c(c2)OCO3)c(=O)[nH]c1=O | inconclusive: 11.7 µM [inhibitor, partial curve, poor fit] | –
O=C(O)CSc1cnc2ccccc2n1 | – | inactive: -5.45%
COc1ccc([C@H]2CC(=O)C=C(c3cccc(C(C)C)c3)C2)cc1OC | inconclusive: 16.5 µM [inhibitor, single point] | –
C=CCn1c(C)cc(-c2csc(NCC)n2)c1C | inconclusive: 18.5 µM [inhibitor, partial curve, poor fit] | –
O=C1c2cccc3cccc(c23)C(=O)N1CC1CCN(S(=O)(=O)c2ccc(F)cc2)CC1 | inconclusive: 18.5 µM [inhibitor, single point] | –
CCC1CN(C(=O)N2CCC(C(=O)Nc3ccccc3F)CC2)c2ccccc2O1 (centres undefined) | inconclusive: 11.7 µM [inhibitor, single point] | –
COc1ccc(NC(=O)CN2C(=O)COc3ccc(S(=O)(=O)N4CCCCCC4)cc32)cc1 | active: 10.4 µM | –
N#Cc1ccc(/C=N/NC(=O)c2cc(-c3cccs3)nc3ccccc23)cc1 | inconclusive: 14.7 µM [inhibitor, partial curve, poor fit] | –
COc1ccccc1CN1CC(C(=O)N(C)Cc2nc(C)cs2)CCC1=O (centres undefined) | inconclusive: 11.7 µM [inhibitor, single point] | –
Cc1cc(C2=NNC(=NC3CC3)SC2)c(C)n1-c1ccccc1 | inconclusive: 7.38 µM [inhibitor, single point] | –
Cc1sc(NC(=O)/C=C/c2ccco2)c(C(=O)O)c1C | – | inactive: 189%
O=c1[nH]cnc2cc(-c3ccccc3)sc12 | inconclusive: 11.7 µM [inhibitor, single point] | –
Cc1cccc2c(N=O)c(O)n(CCc3ccccc3)c12 | inconclusive: 10.4 µM [inhibitor, single point] | –
Cc1c(Cl)cccc1NC(=S)NCCCN(C)C | inconclusive: 0.0657 µM [inhibitor, full curve] | –
CC(=O)Nc1ccc(S(=O)(=O)NC2Cc3ccccc3C2)cc1 | – | inactive: 3.82%
O=C(CSc1ncn[nH]1)N1CCN(c2nnc(-c3ccccc3)c3ccccc23)CC1 | inconclusive: 18.5 µM [inhibitor, single point] | –

Two neighbouring compounds already listed:
SMILES | Potency | activity change, negative = inhibition
O=C(O)CSc1cnc2ccccc2n1 | – | inactive: -5.45%
COc1ccc([C@H]2CC(=O)C=C(c3cccc(C(C)C)c3)C2)cc1OC | inconclusive: 16.5 µM [inhibitor, single point] | –
